Laboratory results as given in US6080772A, “Thiazole compounds and methods of modulating signal transduction” (Sugen, Inc., priority 1997, dated 2000).
The name of at least one read-out is uncertain.

Tested on: primary adipocytes
Assay: Primary adipocyte glucose uptake assay (14C glucose)
Conditions: test compound 50 mM without insulin, compared to samples containing only insulin (final concentration=100 μm)

Question: With `O=[N+]([O-])c1cnc(Sc2nnc(Sc3nnc(SCCCl)s3)s2)s1` [Compound 26, 2-(2-Chloroethylmercapto)-5-[[2-[(5-nitrothiazol-2-yl)mercapto]-1,3,4-thiadiazol-5-yl]mercapto]-1,3,4-thiadiazole] as the molecule, how does the “response in the primary adipocyte glucose uptake assay” value read?
Answer: greater than or equal to 125 % of an insulin control
